Consider 30 molecules from PubChem BioAssay AID1458 (National Center for Advancing Translational Sciences (NCATS), 2008).

Among all 210,000 compounds or so, about 5,900 (2.8%) were called active. About 5% were inconclusive and are not listed. Calls follow the shape of the dose curve; as a rule, active = well fitted activation curve with a large enough effect; inconclusive = small, poorly fitted or top-dose-only effect; inactive = no such curve, though single readings can be large or run the other way. This is a selection; strong and weak results do not stand in their true shares. Entries without a call were filed so in the source.
Potency is read from the fitted curve at half-maximal effect.

This assay can be described thus: qHTS Assay for Enhancers of SMN2 Splice Variant Expression. Also: nearly all actives have a fitted effect of over 55% in size. As to activity change, positive = activation: % of control where 0% means no effect. Conditions: HEK293 SMN2-luciferase splicing reporter, luminescence, 30-36 h; activity change, positive = activation: at 46.1 µM (top of the series) unless noted. In short, it runs like this:
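HEK293 cells carry an SMN2 minigene-luciferase reporter in which exon 7 inclusion puts luciferase in frame. Cells were seeded at 2000 cells/well, attached for 10-12 hours, then exposed to compounds for 30-36 hours at 37C before ONE-Glo luminescence.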
Take `COC(=O)c1nc(-n2nc(C)cc2C)ccc1Cl`: the activity change, positive = activation worked out at 19.4%.

On to `CC(=O)Nc1cn(C(C)=O)c(C)n1`, for which the activity change, positive = activation stood at 26.8%.

For the molecule `Nc1nc(N2CCN(C(=O)c3ccco3)CC2)nc2ccccc12`, the Potency is active: 12.6 µM.

`CC1Cc2nc(SCC(=O)Nc3nccs3)n(C)c(=O)c2S1` (stereo not given): the activity change, positive = activation is 48.2%.

As for `O=C(Nc1nc(-c2ccc(F)cc2)cs1)c1ccc(N2C(=O)CCC2=O)cc1`, the activity change, positive = activation is -40.5%.

`O=C(Oc1cccc2ccccc12)c1cc(Cl)nc2ccccc12`: the activity change, positive = activation turned out to be 1.16%.

For `Nc1ccc(S(=O)(=O)Nc2ccc(S(N)(=O)=O)cc2)cc1`, the activity change, positive = activation is 30.2%.

For `COc1cc(C(=S)N2CCCC2)cc(OC)c1OS(=O)(=O)c1ccc(NC(C)=O)cc1`, the activity change, positive = activation was 33.4%.

In the case of `Oc1[nH]c2ccccc2c1C=Nc1ccc2c(c1)OCO2`, the Potency was active: 0.891 µM.

As for `Nc1cc(S(=O)(=O)N2CCCCC2)ccc1Oc1ccccc1`, the activity change, positive = activation is -66.2%.

For `CC(C)N(C(=O)CSc1nc2ccccc2n1Cc1ccc(F)cc1)C(C)C`, the “activity change, positive = activation” value is inactive: -41.8%.

`Cc1ccc2nc(-c3ccc(NC(=S)NC(=O)C(C)C)cc3)sc2c1`: the activity change, positive = activation stood at 68.6%.

Regarding `FC(F)(F)c1cccc(Nc2ncnc3ccccc23)c1`, the activity change, positive = activation was -21.1%.

With `CCc1c(C(=O)Nc2nnc(C3CC3)s2)csc1C`, the activity change, positive = activation came out at 49.5%.

With `COc1cc(OC)c2nc(C)c3c(c2c1)N(c1ccc(O)cc1)CC3`, the activity change, positive = activation was -39.7%.

Regarding `O=S(=O)(c1ccc2c(c1)OCCO2)N1CCN(c2ncnc3sccc23)CC1`, the “activity change, positive = activation” value is inactive: -84.8%.

Turning to `Cc1nn(C)c(C)c1CNC(=O)Nc1cccc(Cl)c1`, the activity change, positive = activation is 125%.

For `Cc1ccc(S(=O)(=O)NCCOc2nc(N(C)C)nc(N3CCOCC3)n2)cc1`, the activity change, positive = activation was determined as 21.7%.

`COC(=O)COc1ccc(S(=O)(=O)Nc2ccc3c(c2)OCO3)cc1`: the activity change, positive = activation is 33%.

Regarding `COC(=O)c1ccc(NC2=CC(=O)CC(C)(C)C2)cc1`, the activity change, positive = activation came out at 30.7%.

In the case of `OC(CNCc1ccc(F)cc1)(c1ccc(F)cc1)c1ccc(F)cc1`, the activity change, positive = activation is -38%.

For `NC(=O)c1cccnc1Nc1ccccc1Cl`, the “activity change, positive = activation” value is inactive: -18.8%.

`Cc1ccc(NC(=O)c2oc3c(c2C)C(=O)CC(C)(C)C3)cc1`: the activity change, positive = activation came out at 44.2%.

As to `COc1ccc(CCN2C(=O)C3C4C=CC(C3C2=O)C2C(=O)N(CCc3ccc(OC)c(OC)c3)C(=O)C42)cc1OC` (stereo not given), the “activity change, positive = activation” value is inactive: -107%.

In the case of `COc1ccc(CCN/C=C2/CC(=O)NC2=O)cc1OC`, the activity change, positive = activation was 36.9%.

On to `Cc1ccccc1-c1nnc(-c2ccc(Cl)cc2)o1`, for which the activity change, positive = activation turned out to be 39.1%.

`Cc1ccc(NC(=O)Nc2cnc3ccccc3c2)cc1`: the Potency was active: 12.6 µM.

As for `CCOC(=O)c1nn(-c2ccc(OCC)cc2)c2nc(-c3cccc(OC)c3)c(C#N)c(=O)n12`, the activity change, positive = activation was -2.08%.

For `COc1cc(/C=N\NC(=O)CNC(=O)c2cccc([N+](=O)[O-])c2)ccc1O`, the activity change, positive = activation was 33.3%.

On to `Cc1[nH]nc(-c2ccc(O)c(C)c2O)c1-c1cnn(-c2ccccc2)c1`, for which the activity change, positive = activation was determined as 37.1%.
